# From PubChem BioAssay AID504444 (National Center for Advancing Translational Sciences (NCATS), 2011)
# The whole screen tested about 360,000 compounds, of which about 7,500 (2.1%) were called active. Inconclusive results, whose numbers are uncertain, are shown with a selection of clear calls. The call rests on the fitted dose curve; in most records, active means well fitted inhibition curve with a large enough effect; inconclusive means small, poorly fitted or top-dose-only effect, or effect the other way; inactive means flat fitted curve, though single readings scatter. Potencies beside an inconclusive call are fits to weak or partial responses and may not hold up.
# Assay: Nrf2 qHTS screen for inhibitors; further: nearly all actives have a fitted effect of over 60% in size
# Conditions: A549 ARE-Fluc reporter, luciferase luminescence, 18-24 h; series mostly up to 46 µM
# In short: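 Concentration-response testing used A549 ARE_Fluc cells at 5000 cells/well. Following an 18-24 h compound incubation, viability was read by fluorescence (Ex 405/Em 525) and luciferase output by luminescence.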
# Potency means the concentration at half of the fitted maximal effect.
row,Structure (SMILES),Potency
1,COc1ccc2c(CC(=O)Nc3nccs3)coc2c1,"inconclusive: 1.84 µM [activator, full curve, poor fit]"
2,CCOC(=O)c1cc2n(c1C)-c1ccccc1C2=O,"inconclusive: 2.31 µM [activator, full curve, poor fit]"
3,COc1ccc(NC(=O)COC(=O)c2ccc3c(c2)OCCO3)cc1OC,"inconclusive: 18.4 µM [falling, single point]"
4,COC(=O)c1ccccc1NC(=S)N(Cc1ccc2c(c1)OCO2)Cc1cc2cccc(C)c2[nH]c1=O,inactive
5,Cc1c(Cl)cccc1NC(=O)c1ccc(OCC(=O)NCc2ccccc2)cc1,"inconclusive: 20.6 µM [falling, partial curve, poor fit]"
6,O=C(NCCCc1ccccc1)c1nn(-c2ccccc2)nc1CO,inactive
7,Cc1[nH]c2ccccc2c1C(=O)CSc1nc2ccccc2c(=O)n1CCCN1CCOCC1,"inconclusive: 18.4 µM [falling, partial curve, poor fit]"
8,CCOC(=O)C1CCN(c2nnc(N3CCCC3=O)s2)CC1,"inconclusive: 29.1 µM [activator, single point]"
9,Cc1nn(-c2ccc(Br)cc2)c(=O)c2ccccc12,"inconclusive: 9.2 µM [activator, partial curve]"
10,Cc1ccc2nc(SCC(=O)NCCc3ccccc3)nc(=O)n2c1,inactive
11,CC(C)(O)/C=C/C(=O)[C@](C)(O)C1[C@H](O)C[C@@]2(C)C3CC=C4C(C=C(O[C@@H]5O[C@H](CO)[C@@H](O)[C@H](O)[C@H]5O)C(=O)C4(C)C)[C@]3(C)C(=O)C[C@]12C (stereo partly drawn),inactive
12,CCCCc1nc2cc(C(=O)N3CCC(O)CC3)ccc2o1,"inconclusive: 2.91 µM [activator, partial curve, poor fit]"
13,Cc1csc(NC(=O)CCc2c(C)nc3cc(-c4cccc(F)c4)nn3c2C)n1,"inconclusive: 5.17 µM [falling, partial curve, poor fit]"
14,Cc1nc(SCc2cccnc2)[nH]c(=O)c1C,inactive
15,C/C(=N\Nc1nc2ccccc2[nH]1)c1ccc(N2CCOCC2)cc1,"inconclusive: 25.9 µM [activator, single point]"
16,Cn1c(=O)c(-c2cc(Br)ccc2N)nc2ccccc21,"inconclusive: 14.6 µM [activator, partial curve, poor fit]"
17,COc1ccccc1N=Nc1nc(-c2ccccc2)c(-c2ccccc2)[nH]1,active: 18.4 µM
18,O=C(O)/C=C/C(=O)Nc1ccc(Oc2ncnc3cc(Cl)ccc23)nc1,"inconclusive: 10.3 µM [activator, partial curve]"
19,COc1ccc(Cl)cc1C(=O)Nc1ccc(NC(=O)c2ccco2)cc1,"inconclusive: 1.3 µM [falling, full curve]"
20,Cn1c(CN2CCN(C(=O)c3ccc(F)cc3)CC2)nc2cc([N+](=O)[O-])ccc21,"inconclusive: 13 µM [falling, partial curve]"
21,COc1ccc(OC)c(/C=N/NC(=O)CNC(=O)c2cccc3ccccc23)c1,inactive
22,CCOc1ccc(Br)cc1/C=N/O,"inconclusive: 29.1 µM [falling, partial curve, poor fit]"

# Among those listed so far, 2 contain fluorine.
row,Structure (SMILES),Potency
13,Cc1csc(NC(=O)CCc2c(C)nc3cc(-c4cccc(F)c4)nn3c2C)n1,"inconclusive: 5.17 µM [falling, partial curve, poor fit]"
20,Cn1c(CN2CCN(C(=O)c3ccc(F)cc3)CC2)nc2cc([N+](=O)[O-])ccc21,"inconclusive: 13 µM [falling, partial curve]"

# Continued.

row,Structure (SMILES),Potency
1,C[C@@H]1[C@H]2CCCC[C@H]2CN(C(=O)OC(C)(C)C)[C@@H]1c1cn(Cc2ccccc2)c2ccc(F)cc12,inactive
2,CCCN(C(=O)COC(=O)c1cc(CC)c(C)s1)c1c(N)n(Cc2ccccc2)c(=O)[nH]c1=O,"inconclusive: 2.91 µM [falling, full curve, poor fit]"
3,CN1CCN(c2ccc(NC(=O)c3ccc4c(c3)OCCO4)cc2)CC1,"inconclusive: 3.26 µM [activator, partial curve]"
4,COc1ccccc1CN1CCN(Cc2nc(-c3ccccc3)no2)CC1,"inconclusive: 6.51 µM [activator, partial curve]"
5,COC(=O)c1ccc(CSc2nc3ccccc3s2)o1,"inconclusive: 18.4 µM [activator, partial curve]"
6,COc1ccc(C(=O)Nc2c(Cl)cc(Cl)cc2C(=O)N2CCC(C)CC2)cc1,inactive
7,COc1ccc(C2=NN(S(C)(=O)=O)C(c3cccs3)C2)cc1OC (stereo not drawn),"inconclusive: 9.2 µM [activator, partial curve]"
8,Cc1ccc(-c2nnc3ccc(SCC(N)=O)nn23)cc1,inactive
9,COc1cccc(-c2nc(SCC(=O)NCC3CCCO3)c(-c3ccc(Cl)cc3)[nH]2)c1 (stereo not drawn),"inconclusive: 16.4 µM [falling, partial curve]"
10,O=C(C1CC1)N1CCc2sccc2C1c1ccc(Cl)cc1 (stereo not drawn),"inconclusive: 0.92 µM [falling, full curve, poor fit]"
11,Cc1ccc(S(=O)(=O)NCC(=O)NCc2ccncc2)cc1,inactive
12,O=C1OCc2ccc(NC(=O)c3sccc3Cl)cc21,"inconclusive: 13 µM [falling, partial curve, poor fit]"
13,CCOc1ccc2[nH]c(SCC(=O)OC)c([N+](=O)[O-])c2c1,"inconclusive: 2.91 µM [falling, partial curve, poor fit]"
14,Oc1ccc(Nc2ccc3ccccc3c2)cc1,inactive
15,c1cnc2c(c1)ccc1cccnc12,active: 5.8 µM
16,Cc1ccc(/C=N/n2c(-c3ccccc3)n[nH]c2=S)cc1,"inconclusive: 0.146 µM [falling, full curve, poor fit]"
17,NS(=O)(=O)c1ccc(NC(=O)CSc2nc(Nc3ccccc3)nc(N3CCOCC3)n2)cc1,"inconclusive: 23.1 µM [falling, partial curve, poor fit]"
18,Cc1c(C(=O)N2CCN(c3ccc(F)cc3)CC2)sc2ncnc(N3CCN(c4ccccn4)CC3)c12,"inconclusive: 29.1 µM [falling, single point]"
19,COc1cccc(-c2noc(-c3ccc4c(c3)OCO4)n2)c1,"inconclusive: 1.3 µM [activator, full curve, poor fit]"
20,CCOC(=O)C1CCCN(C(=O)c2ccc3c(c2)N(Cc2ccccc2F)C(=O)c2ccccc2S3=O)C1 (stereo not drawn),inactive
21,CC(OC(=O)c1ccc(NS(=O)(=O)c2ccc3[nH]c(=O)[nH]c3c2)cc1)C(N)=O (stereo not drawn),"inconclusive: 25.9 µM [activator, single point]"
